Where a name gives a salt, the structure may show the parent alone. ± gives the standard deviation of the averaged measurements. The list shows a part of the results. Single values are uncertain here, since repeats match poorly.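 Assays used MDA-MB-231 triple-negative breast cancer cells and their brain-metastatic line MDA-MB-231BRM, stably carrying empty vector, full-length GLI1 or truncated tGLI1. After 48 h, viability was read with CellTiter-Blue and normalized to 1% DMSO vehicle. tGLI1 selectivity meant viability fell 20% more in tGLI1 cells than in vector and GLI1 cells.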
These compounds were tested on MDA-MB-231 tGLI1 (assay: cell viability relative to vehicle (DMSO) control (fraction); higher = more viable cells (less growth inhibition)). Details: 5 µM; treatment time 48 h.

Compound	cell viability
C[C@H]1[C@H](C)CC[C@]2(C(=O)O)CC[C@]3(C)C(=CC[C@@H]4[C@@]5(C)C[C@@H](O)[C@H](O)[C@@](C)(CO)[C@@H]5CC[C@]43C)[C@H]12 [Asiatic Acid]	0.962
O=C1NC(=O)C(c2ccccc2[N+](=O)[O-])=C1Nc1ccc(O)c(Cl)c1	0.89
Cc1c(Cn2c(C)nc3c(C(=O)O)cc(N4CCOCC4)cc32)cccc1C(F)(F)F	0.629
Cc1ccc(NC(=O)c2ccc(CN3CCN(C)CC3)cc2)cc1Nc1nccc(-c2cccnc2)n1 [Imatinib (STI571)]	1.03
CCC(=O)NCC[C@@H]1CCc2ccc3c(c21)CCO3 [Ramelteon (TAK-375)]	1.09
NC(=O)Nc1cc(-c2cccc(F)c2)sc1C(=O)N[C@H]1CCCNC1	0.0483
COc1cc2ncnc(Oc3ccc(CC(=O)Nc4cnn(C(C)C)c4)cc3)c2cc1OC	1.38
CC(C)(C)NS(=O)(=O)c1cncc(-c2cc(F)c3nc(N)nn3c2)c1	1.03
O=C(Nc1cc(C(F)(F)F)cc(C(F)(F)F)c1)c1cc(Cl)ccc1O	-0.111
CN1CCC(COc2cnc(-c3cccc(Cn4nc(-c5cccc(C#N)c5)ccc4=O)c3)nc2)CC1	1.7
CC(C)CC(=O)Nc1n[nH]c2c1CN(C(=O)C1CCN(C)CC1)C2(C)C	0.206
COc1cc2ncc(-c3ccccc3)nc2cc1OC [Tyrphostin AG 1296]	0.854
C1=N/C2=N/c3ccc(OCCN4CCCC4)c(c3)COC/C=C/COCc3cccc(c3)C(=C1)N2 [Pacritinib (SB1518)]	-0.146
O=C(NCCO)c1cccc(-c2cc(Nc3ccc(OC(F)(F)F)cc3)ncn2)c1	1.57
N#CC(=C(/N)Sc1ccccc1N)/C(C#N)=C(\N)Sc1ccccc1N	0.546
CN(C)Cc1cccc(N/C(=C2\C(=O)Nc3cc(C(N)=O)ccc32)c2ccccc2)c1	1.55
C[C@@H](CN1CC(=O)NC(=O)C1)N1CC(=O)NC(=O)C1 [Dexrazoxane Hydrochloride]	0.985
COc1ccc(-c2ccc3ncc4c(c3c2)n(-c2ccc(N3CCNCC3)c(C(F)(F)F)c2)c(=O)n4C)cn1	-0.168
CC(C)(C)c1cnc(CSc2cnc(NC(=O)C3CCNCC3)s2)o1	0.131
Cc1c(F)cc(C(=O)NC2CC2)cc1-c1ccc(C(=O)NCC(C)(C)C)cn1	1.39

Compound	cell viability
CCCC1O[C@@H]2C[C@H]3[C@@H]4CCC5=CC(=O)C=C[C@]5(C)[C@H]4[C@@H](O)C[C@]3(C)[C@]2(C(=O)CO)O1 (some centres undefined) [Budesonide]	0.858
C[C@@H](Oc1cc(-c2cnn(C3CCNCC3)c2)cnc1N)c1c(Cl)ccc(F)c1Cl	0.376 ± 0.2
O=C1NC(=O)/C(=C/c2ccc3nccc(-c4ccncc4)c3c2)S1	0.401
Cc1ccc2nc(NCCN)c3ncc(C)n3c2c1	0.128
CC(=O)[C@]1(O)Cc2c(O)c3c(c(O)c2[C@@H](O[C@H]2C[C@H](N)[C@H](O)[C@H](C)O2)C1)C(=O)c1ccccc1C3=O [Idarubicin HCl]	-0.308
NC1(c2ccc(-c3nc4ccn5c(=O)[nH]nc5c4cc3-c3ccccc3)cc2)CCC1	0.667
O=C1NC(=O)/C(=C/c2ccc(-c3ccc(F)cc3O)o2)S1	1.15
CN(C)CCOc1ccc(-c2nc(-c3ccncc3)c(-c3ccc4c(c3)CC/C4=N\O)[nH]2)cc1	-0.0426
O=C1NC(=O)/C(=C/c2cccc(C(F)(F)F)c2)S1	1.29
C=CC(=O)Nc1ccc2ncnc(Nc3cccc(Br)c3)c2c1	0.658
COc1cc(F)c(F)c(Nc2ccc(I)cc2F)c1NS(=O)(=O)C1(C[C@H](O)CO)CC1 [Refametinib (RDEA119, Bay 86-9766)]	0.454
Cc1cc(CN2CCN(c3c(Br)cnc4nc(-c5ccc(N6CCN(C)CC6)cc5)[nH]c34)CC2)no1	0.00528
Cc1cc(F)c(Nc2ncnc3cc(OCc4ccccc4)ccc23)cc1O	0.568
CN1CCC(CNc2ccc3ncc(-c4cccc(OC(F)(F)F)c4)n3n2)CC1 [SGI-1776 free base]	0.345
COc1cc(OC)c(/C=C/S(=O)(=O)Cc2ccc(OC)c(NCC(=O)O)c2)c(OC)c1	0.111
COc1ncc(-c2ccc3nccc(-c4ccnnc4)c3c2)cc1NS(=O)(=O)c1ccc(F)cc1F	0.307
S=C(NCc1ccc2c(c1)OCO2)N1CCN(c2ncnc3c2oc2ccccc23)CC1 [Amuvatinib (MP-470)]	0.896
OCCn1cc(-c2cnc3nnn(Cc4ccc5ncccc5c4)c3n2)cn1	1.18
Cc1c(NC(=O)c2ccc(C(C)(C)C)cc2)cccc1-c1cn(C)c(=O)c(Nc2ccc(C(=O)N3CCOCC3)cc2)n1	1.09

Random excerpt: three entries already listed, in no set order.
Compound	cell viability
Cc1cc(F)c(Nc2ncnc3cc(OCc4ccccc4)ccc23)cc1O	0.568
Cc1c(NC(=O)c2ccc(C(C)(C)C)cc2)cccc1-c1cn(C)c(=O)c(Nc2ccc(C(=O)N3CCOCC3)cc2)n1	1.09
COc1cc(OC)c(/C=C/S(=O)(=O)Cc2ccc(OC)c(NCC(=O)O)c2)c(OC)c1	0.111
